Reference: article PMC10055520
No constants are given. Whether binding was seen depends on the method and setting. Binding seen in cells or lysates may run through a third protein. For some assays here: Binding can be weak; no strength is given. Sequences can lack the tags named with a protein.

Assays:
[1] = molecular target: MYC-tagged Tead3 CT (C-terminal region = YAP-binding domain) (mouse); assay: co-IP; HEK293T cells co-transfected with SFB-Nfatc1 and MYC-tagged full-length or truncated Tead3; RIPA lysate; pulldown with a MYC-specific antibody; blots for MYC and FLAG
[2] = molecular target: MYC-tagged Tead3 NT (N-terminal region = DNA-binding domain, TEA domain) (mouse); assay: as above

B1: SFB-tagged full-length mouse Nfatc1 (protein, UniProt O88942 1-717)
chain: MPNTSFPVPSKFPLGPPAAVCGSGETLRPAPPSGGTMKAAEEEHYSYVSPSVTSTLPLPTAHSALPAACHDLQTSTPGISAVPSANHPPSYGGAVDSGPSGYFLSSGNTRPNGAPTLESPRIEITSYLGLHHGSGQFFHDVEVEDVLPSCKRSPSTATLHLPSLEAYRDPSCLSPASSLSSRSCNSEASSYESNYSYPYASPQTSPWQSPCVSPKTTDPEEGFPRSLGACHLLGSPRHSPSTSPRASITEESWLGARGSRPTSPCNKRKYSLNGRQPSCSPHHSPTPSPHGSPRVSVTEDTWLGNTTQYTSSAIVAAINALTTDSTLDLGDGVPIKSRKTALEHAPSVALKVEPAGEDLGTTPPTSDFPPEEYTFQHLRKGAFCEQYLSVPQASYQWAKPKSLSPTSYMSPSLPALDWQLPSHSGPYELRIEVQPKSHHRAHYETEGSRGAVKASAGGHPIVQLHGYLENEPLTLQLFIGTADDRLLRPHAFYQVHRITGKTVSTTSHEIILSNTKVLEIPLLPENNMRAIIDCAGILKLRNSDIELRKGETDIGRKNTRVRLVFRVHIPQPNGRTLSLQVASNPIECSQRSAQELPLVEKQSTDSYPVIGGKKMVLSGHNFLQDSKVIFVEKAPDGHHVWEMEAKTDRDLCKPNSLVVEIPPFRNQRITSPAQVSFYVCNGKRKRSQYQRFTYLPANGNSVFLTLSSESELRGGFY
[1]
  binding: no binding
[2]
  binding: binds
